Data published in article PMC8096222.
These are yes or no findings as the source states them, for the method shown. For some of these results: In cells and extracts the contact can be indirect. Some binding calls cover weakened binding; strength is not graded here. One block for each substance: values may come before it.

The chains behind the UniProt entries cited, without tags or fusion partners. Where a name states a change or a piece, a line headed by the entry shows the natural chain unless it says otherwise. A line that says so, or that is headed by a name, gives the form on record, which may keep a tag or linker. Residues count along the entry.
UniProt Q15910: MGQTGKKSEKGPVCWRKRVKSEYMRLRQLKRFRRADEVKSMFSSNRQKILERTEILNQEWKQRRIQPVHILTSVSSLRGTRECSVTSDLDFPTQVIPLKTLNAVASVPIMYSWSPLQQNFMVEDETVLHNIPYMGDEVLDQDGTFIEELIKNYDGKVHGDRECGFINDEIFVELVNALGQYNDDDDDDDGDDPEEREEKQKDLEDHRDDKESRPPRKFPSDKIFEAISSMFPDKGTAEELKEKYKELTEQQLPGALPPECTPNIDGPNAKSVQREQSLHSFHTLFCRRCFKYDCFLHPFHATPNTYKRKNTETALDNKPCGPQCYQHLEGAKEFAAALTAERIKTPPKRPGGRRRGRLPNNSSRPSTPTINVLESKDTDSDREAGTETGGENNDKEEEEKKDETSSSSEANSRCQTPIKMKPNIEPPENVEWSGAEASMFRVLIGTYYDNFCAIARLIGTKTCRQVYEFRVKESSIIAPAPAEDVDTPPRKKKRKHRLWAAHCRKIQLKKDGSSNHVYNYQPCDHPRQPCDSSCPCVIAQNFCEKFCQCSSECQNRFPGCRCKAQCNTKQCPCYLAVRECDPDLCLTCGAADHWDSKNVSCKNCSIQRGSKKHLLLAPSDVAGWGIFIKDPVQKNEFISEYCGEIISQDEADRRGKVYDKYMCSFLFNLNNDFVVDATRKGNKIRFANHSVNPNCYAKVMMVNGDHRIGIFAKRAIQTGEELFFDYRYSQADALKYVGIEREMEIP
GST-fused EZH2 N1 domain (aa 1-173): residues 1-173 of Q15910
EZH2, in vitro-transcribed/translated (Q15910-2, form named): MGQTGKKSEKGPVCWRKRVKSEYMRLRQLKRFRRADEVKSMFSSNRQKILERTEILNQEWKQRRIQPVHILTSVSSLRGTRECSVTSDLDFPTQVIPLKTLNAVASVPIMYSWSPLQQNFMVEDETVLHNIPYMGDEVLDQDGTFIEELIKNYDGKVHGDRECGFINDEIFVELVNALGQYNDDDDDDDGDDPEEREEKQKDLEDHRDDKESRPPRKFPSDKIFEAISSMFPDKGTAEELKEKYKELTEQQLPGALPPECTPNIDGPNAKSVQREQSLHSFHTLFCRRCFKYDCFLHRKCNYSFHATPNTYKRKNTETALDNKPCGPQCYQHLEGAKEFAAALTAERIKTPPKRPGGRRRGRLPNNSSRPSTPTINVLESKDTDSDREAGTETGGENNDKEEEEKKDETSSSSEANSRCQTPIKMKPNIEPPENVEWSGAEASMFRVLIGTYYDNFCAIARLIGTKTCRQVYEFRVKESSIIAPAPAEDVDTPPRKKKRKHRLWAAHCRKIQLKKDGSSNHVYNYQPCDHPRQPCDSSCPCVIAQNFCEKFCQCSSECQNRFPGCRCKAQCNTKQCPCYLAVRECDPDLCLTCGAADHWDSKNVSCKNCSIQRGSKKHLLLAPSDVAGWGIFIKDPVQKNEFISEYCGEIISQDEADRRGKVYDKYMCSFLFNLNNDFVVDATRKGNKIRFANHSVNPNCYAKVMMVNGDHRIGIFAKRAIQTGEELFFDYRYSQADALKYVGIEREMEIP
UniProt Q93009: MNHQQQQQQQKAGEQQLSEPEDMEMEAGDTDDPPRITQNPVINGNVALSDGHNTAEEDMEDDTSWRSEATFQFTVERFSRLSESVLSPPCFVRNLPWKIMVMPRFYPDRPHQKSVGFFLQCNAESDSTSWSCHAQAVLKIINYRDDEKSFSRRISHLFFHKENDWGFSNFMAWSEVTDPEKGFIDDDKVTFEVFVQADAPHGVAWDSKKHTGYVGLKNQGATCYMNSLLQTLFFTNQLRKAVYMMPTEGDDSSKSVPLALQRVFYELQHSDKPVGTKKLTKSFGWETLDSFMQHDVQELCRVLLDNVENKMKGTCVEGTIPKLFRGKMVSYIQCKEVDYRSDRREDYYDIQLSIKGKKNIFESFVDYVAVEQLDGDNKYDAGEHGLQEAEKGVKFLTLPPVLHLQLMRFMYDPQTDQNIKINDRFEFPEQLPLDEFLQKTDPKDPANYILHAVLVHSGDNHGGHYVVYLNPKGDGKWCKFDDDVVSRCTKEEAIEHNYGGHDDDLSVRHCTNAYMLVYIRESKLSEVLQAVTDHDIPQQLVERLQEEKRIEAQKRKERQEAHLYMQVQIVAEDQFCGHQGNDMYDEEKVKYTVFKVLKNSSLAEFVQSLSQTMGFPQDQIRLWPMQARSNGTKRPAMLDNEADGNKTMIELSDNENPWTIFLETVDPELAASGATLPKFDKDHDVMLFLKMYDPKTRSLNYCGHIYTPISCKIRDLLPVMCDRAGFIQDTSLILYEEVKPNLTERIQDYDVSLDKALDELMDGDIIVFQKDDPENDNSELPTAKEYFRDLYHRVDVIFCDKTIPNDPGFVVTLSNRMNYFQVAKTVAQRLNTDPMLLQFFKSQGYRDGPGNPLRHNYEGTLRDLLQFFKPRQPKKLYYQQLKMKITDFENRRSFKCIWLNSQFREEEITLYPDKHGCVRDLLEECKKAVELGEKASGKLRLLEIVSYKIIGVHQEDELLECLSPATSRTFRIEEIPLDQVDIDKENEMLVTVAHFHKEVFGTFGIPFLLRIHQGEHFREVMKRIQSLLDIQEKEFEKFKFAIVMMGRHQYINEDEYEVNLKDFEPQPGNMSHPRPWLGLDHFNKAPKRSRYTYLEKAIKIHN
USP7 MATH domain (His-tagged deletion mutant of USP7): residues 68-195 of Q93009
UniProt O75530: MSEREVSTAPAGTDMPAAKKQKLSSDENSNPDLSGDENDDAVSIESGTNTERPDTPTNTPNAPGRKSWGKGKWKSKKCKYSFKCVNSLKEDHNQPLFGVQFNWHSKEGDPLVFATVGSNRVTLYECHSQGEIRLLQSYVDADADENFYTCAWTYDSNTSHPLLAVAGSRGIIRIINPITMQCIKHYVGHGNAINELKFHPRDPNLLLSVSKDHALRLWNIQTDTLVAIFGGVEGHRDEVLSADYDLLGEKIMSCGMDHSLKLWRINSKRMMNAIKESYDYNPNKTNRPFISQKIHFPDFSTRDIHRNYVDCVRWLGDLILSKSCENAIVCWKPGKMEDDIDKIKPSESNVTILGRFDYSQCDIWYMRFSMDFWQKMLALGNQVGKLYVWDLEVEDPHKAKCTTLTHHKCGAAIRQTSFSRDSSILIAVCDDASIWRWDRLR
UniProt Q15022: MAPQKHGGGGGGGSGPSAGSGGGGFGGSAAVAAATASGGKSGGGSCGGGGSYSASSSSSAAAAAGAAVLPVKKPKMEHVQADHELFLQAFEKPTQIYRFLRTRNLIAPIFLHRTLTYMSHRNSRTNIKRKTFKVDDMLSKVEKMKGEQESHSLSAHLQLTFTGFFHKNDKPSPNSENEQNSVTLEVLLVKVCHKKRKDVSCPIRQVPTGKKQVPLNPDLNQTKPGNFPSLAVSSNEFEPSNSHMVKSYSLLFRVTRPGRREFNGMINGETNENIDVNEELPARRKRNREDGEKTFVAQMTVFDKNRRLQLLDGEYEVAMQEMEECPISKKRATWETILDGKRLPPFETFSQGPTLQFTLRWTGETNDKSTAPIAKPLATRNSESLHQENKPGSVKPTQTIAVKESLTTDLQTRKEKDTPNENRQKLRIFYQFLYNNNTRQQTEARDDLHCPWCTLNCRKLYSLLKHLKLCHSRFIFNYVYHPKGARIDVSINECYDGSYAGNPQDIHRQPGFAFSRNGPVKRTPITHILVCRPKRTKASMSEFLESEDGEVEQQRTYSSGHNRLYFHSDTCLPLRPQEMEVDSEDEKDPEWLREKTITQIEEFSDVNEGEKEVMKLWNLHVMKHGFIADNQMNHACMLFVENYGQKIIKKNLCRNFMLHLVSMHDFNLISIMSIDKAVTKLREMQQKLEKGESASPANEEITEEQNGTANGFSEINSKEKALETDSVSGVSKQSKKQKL

Key:
[1] = biological target: EZH2 (human (endogenous in A375 and HEK293T)) (UniProt Q15910); assay: SEC; A375 nuclear extracts (high salt extraction) on a Superose 6 size exclusion column, 0.5 ml/min; fractions analysed by western blotting
[2] = biological target: EZH2 (human (endogenous in A375 and HEK293T)) (UniProt Q15910); assay: co-IP; endogenous proteins; whole cell lysates of A375 and HEK293T cells in NETN buffer (50 mM Tris-HCl pH 8.0, 150 mM NaCl, 0.2% Nonidet P-40, 2 mM EDTA); antibodies 12 h at 4°C, protein G magnetic beads; immunoblot
[3] = biological target: USP7 MATH domain (His-tagged deletion mutant of USP7) (UniProt Q93009); assay: pull-down; His pull-down: His-tagged USP7 or its deletion mutants purified from Sf9 cells incubated with in vitro-transcribed/translated EZH2, SUZ12 or EED at 4°C overnight; immunoblot; only the target purified
[4] = biological target: His-tagged USP7/WT, full length (UniProt Q93009); assay: as above
[5] = biological target: GST-fused EZH2 N1 domain (aa 1-173) (UniProt Q15910); assay: pull-down; GST pull-down: GST-fused EZH2 deletion mutants from E. coli on glutathione-Sepharose 4B beads (washed with 300 mM NaCl buffer) incubated with in vitro-transcribed/translated FLAG-USP7 at 4°C overnight; immunoblot; only the target purified

Substance: EZH2, in vitro-transcribed/translated (from UniProt Q15910-2 1-751) (enzyme)
binding [3]: binds
binding [4]: binds

Substance: FLAG-USP7, in vitro-transcribed/translated (from UniProt Q93009 1-1102) (enzyme)
binding [5]: binds

Substance: EED, in vitro-transcribed/translated (from UniProt O75530 1-441)
binding [4]: no binding

The next lines start with the values.

binding [1]: binds
binding [2]: binds
Substance: ubiquitin-specific protease 7 (USP7) (from UniProt Q93009 1-1102) (enzyme)

binding [4]: no binding
Substance: SUZ12, in vitro-transcribed/translated (from UniProt Q15022 1-739)
